Laboratory results as given in PubChem BioAssay AID590 (National Center for Advancing Translational Sciences (NCATS), 2007).
Where “and” joins values, the source holds several entries; their conditions need not be identical. Identical values can stand only once. The whole screen tested about 59,000 compounds, of which about 6,500 (11%) were called active. The inconclusive results got no clear call from the source; some entries with a clear call stand among them for comparison. Cut-off read from the data, not from the text of the source: active = max dye-equivalent concentration above about 10 nM; inconclusive = mostly about 1.1 nM to 9.6 nM; inactive = weaker than that. Where a structure was tested more than once in an assay, its records may differ in their call.

Assay: qHTS Assay for Spectroscopic Profiling in A350 Spectral Region
Conditions: Compound autofluorescence, 340/450 nm, Alexa 350 dye-equivalents; active compounds read high

Compound	max dye-equivalent concentration	outcome
CC(C)C[C@H]1C(=O)N2CCC[C@@H]2[C@]2(O)O[C@](NC(=O)[C@H]3C=C4c5cccc6[nH]c(Br)c(c56)C[C@H]4N(C)C3)(C(C)C)C(=O)N12	active: 1.6e-08 M and active: 2.4e-08 M	
CC(=O)c1cc2c(cc1NC(=O)CN1CCOCC1)OCO2	active: 2.1e-08 M	
O=C(CC12CC3CC(C1)CC(CC(=O)NC1=NCCS1)(C3)C2)NC1=NCCS1	inactive	
CCN(CC)S(=O)(=O)c1cccc(-c2nnc(C(=O)c3ccc(C(F)(F)F)cc3)o2)c1	inconclusive: 1.2e-09 M	
COc1ccc2cnn(CCOc3ccccc3)c(=O)c2c1OC	inconclusive: 1.1e-09 M	
Cc1ccc(-c2c3c(=O)n(C)c(=O)n(C)c3cn2N2CCOCC2)cc1	inconclusive: 3.2e-09 M	
COCCn1c(N)c(C(=O)NCc2cccs2)c2nc3ccccc3nc21	active: 8.8e-07 M	
O=C(CN(Cc1ccccc1F)C(=O)Cn1nnc(-c2cccs2)n1)NCC1CCCO1 (stereo unspecified)	inactive	
CCCCC(=O)NC(Nc1nc(C2CC2)cs1)(C(=O)OCC)C(F)(F)F (stereo unspecified)	inactive	
Nc1nnc(N2CCCCCC2)s1	inconclusive: 1.3e-09 M	
COc1cc(OC)cc(-c2nnc(SCC(=O)Nc3cc(C)on3)o2)c1	inconclusive: 8.3e-09 M	
C=CCN1C(=O)/C(=C2/Sc3ccccc3N2CCCS(=O)(=O)O)SC1=S	inconclusive: 3.1e-09 M	
N#Cc1cn(-c2ccccc2)nc1-c1ccccc1	inactive	
CC(=Nc1ccc2c(c1)nc(CO)n2C)C1=C(O)CC(C)(C)CC1=O	inconclusive: 3.6e-09 M	
CCCc1[nH]nc2c1C(c1cc(OC)ccc1F)C(C#N)=C(N)O2 (stereo unspecified)	inconclusive: 8.1e-09 M	
O=C(NCC1COc2ccccc2O1)C1CCN(S(=O)(=O)c2cccc3nsnc23)CC1 (stereo unspecified)	inconclusive: 2.1e-09 M	
C=CCn1c(SCC(=O)Nc2nnc(CC)s2)nnc1-c1ccco1	inconclusive: 3.2e-09 M	
O=C(O)C1CCCCC1C(=O)NCCc1ccc(Cl)cc1 (stereo unspecified)	active: 3.5e-07 M	
CCc1nnc(NC(=O)Cn2nc(-c3ccccc3OC)ccc2=O)s1	inconclusive: 3.4e-09 M	
COCCn1c(=O)cnc2cnc(N3CCNCC3)nc21	active: 1.5e-07 M	
COc1ccccc1N1CCN(S(=O)(=O)c2ccc3c4c(cccc24)C(=O)N3)CC1	inconclusive: 1.7e-09 M	
Cc1ccc(C)n1-c1ccc(-c2nnco2)cc1	inactive	
CCc1c(C)nc(N)n2c(SCC(=O)N3CCCc4ccccc43)nnc12	inconclusive: 4.5e-09 M	

Compound	max dye-equivalent concentration	outcome
Cc1ccccc1S(=O)(=O)Cc1ccc(C(=O)NCCCN2CCN(C)CC2)o1	inconclusive: 1.6e-09 M	
CCc1nnc(NC(=O)CCC(=O)N2CCN(Cc3cc(F)ccc3OC)CC2)s1	inconclusive: 5.4e-09 M	
O=C(O)Cc1c(O)ccc2ccccc12	inconclusive: 1.7e-09 M	
COc1ccc(Nc2nccc3c2nnn3C)cc1	inconclusive: 1.7e-09 M	
Cn1c(/N=C/c2cc(Cl)ccc2O)nc2ccccc21	inconclusive: 4.3e-09 M	
CN(C)c1ncc2nc(-c3cccc(C#N)c3)c(=O)n(C)c2n1	active: 1.4e-08 M	
CCN1CCN(Cc2c(C)[nH]c3ccc(OC)cc3c2=O)CC1	inconclusive: 4.8e-09 M	
Cc1cccc(C)c1NC(=O)c1cc(S(=O)(=O)N2CCOCC2)ccc1F	inconclusive: 1.1e-09 M	
CCn1cc(C(=O)NCCCOC)c2cc(OC)c(OC)cc2c1=O	inactive	
Cc1cc(=O)oc(C)c1C(=O)NCc1c(F)cc(F)cc1F	inconclusive: 3.6e-09 M	
O=C(NC1=NCCS1)c1ccc(OCC2CCCO2)cc1 (stereo unspecified)	inconclusive: 1.7e-09 M	
COc1ccc(-c2c3c(nc4sc(C(=O)Nc5cc(C)on5)c(N)c24)CCC3)cc1	active: 3.6e-08 M	
CSc1nc(N)nc(SC2C=CCCC2)c1C#N (stereo unspecified)	inactive	
CN1CCN(c2ncc3nc(-c4ccccc4)c(=O)n(CCC#N)c3n2)CC1	active: 1.4e-07 M	
CC1Cc2ccccc2N1C(=O)Cc1cccs1 (stereo unspecified)	inconclusive: 2.1e-09 M	
CCOc1ccc2nc(NC(=O)COC)sc2c1	inactive	
CCc1nc(Nc2ccc(N3CCN(C(C)=O)CC3)cc2)c2oc3ccccc3c2n1	inactive	
Cc1oc(-c2cccc(Cl)c2)nc1CN1CCC(C(=O)NCc2cccnc2)CC1	inconclusive: 1.2e-09 M	
COc1ccc(CCN2CC(O)=C(c3nc4ccccc4c(=O)[nH]3)C2=N)cc1OC	inconclusive: 9.7e-09 M	
O=C(C1=C(O)C(=O)N(Cc2ccccc2)C1c1cccnc1)c1ccco1 (stereo unspecified)	inconclusive: 1.3e-09 M	
N#CC(C(=O)c1ccco1)c1ccccn1 (stereo unspecified)	inconclusive: 6.1e-09 M	
COc1ccccc1N1CC(O)=C(c2nc3ccccc3c(=O)[nH]2)C1=N	active: 1.1e-08 M	
COCCn1c(=O)c(-c2ccc(Cl)cc2)nc2cnc(OC)nc21	active: 1.9e-08 M	

Compound	max dye-equivalent concentration	outcome
CN(C)S(=O)(=O)c1cccc(COC(=O)C2=COCCO2)c1	inconclusive: 2.6e-09 M	
Cc1nc(NC2=NCN(CC3CCCO3)CN2)nc2ccccc12 (stereo unspecified)	inconclusive: 1.6e-09 M	
COc1cc(NC(=O)c2ccco2)c(OC)cc1NC(=O)Nc1ccc(Cl)cc1	inconclusive: 3.3e-09 M	
Cc1cccc(NC(=O)CSc2nnc(-c3ccccc3)n2N)c1C	inconclusive: 1.7e-09 M	
N=c1sc2ccccc2n1CCS (tested in a mixture with another compound)	inconclusive: 4.7e-09 M	
CCN1CCN(c2c(Cl)cccc2NC(=O)c2ccco2)CC1	inactive	
C=CCOc1ccc(/C(O)=C2\C(=O)C(=O)N(CCOC)C2c2cccnc2)cc1 (stereo unspecified)	inconclusive: 2.9e-09 M	
CN(C)c1nc2sc3c(c2c(=O)n1C)CC(C)(C)OC3	inconclusive: 7.8e-09 M	
Cn1c(=O)n(CCc2ccccc2)c(=O)c2c1nc1n2CCCN1CCc1ccccc1	inactive	
C=CCOc1ccc(/C(O)=C2\C(=O)C(=O)N(CCCOC)C2c2ccncc2)cc1 (stereo unspecified)	inconclusive: 1.2e-09 M	
CCOC(=O)N1CCN(C(=O)Cn2c(C)cc3ccccc3c2=O)CC1	inconclusive: 1.7e-09 M	
Cc1cccc2cc(CN(CC3CCCO3)C(=O)c3ccncc3)c(=O)[nH]c12 (stereo unspecified)	inactive	
COC(=O)c1[nH]c2ccccc2c1NC(=O)Oc1ccccc1	active: 2.2e-08 M	
Nc1nc2n(n1)C(c1cccs1)CC(c1ccc(Br)cc1)N2 (stereo unspecified)	inconclusive: 5.6e-09 M	
O=c1[nH]c(=O)n(Cc2ccccc2)c2nc(-c3ccco3)cc(C(F)(F)F)c12	active: 1.6e-06 M	
Cc1cc(C)nc(NS(=O)(=O)c2ccc(N)cc2)n1	active: 1.4e-07 M	inactive
CC(C)OCCCNc1nc2c([nH]1)c(=O)n(C)c(=O)n2C	inconclusive: 2.1e-09 M	
COc1cc(NS(=O)(=O)c2ccc(N)cc2)ncn1	inactive	
CCOC(=O)CNC(=O)CNC(=O)c1ccc(OC)cc1	inactive	
O=C(c1cc2ccccc2o1)N1CCCCCC1	inactive	
COC(=O)c1ccc(CSc2nc3ccccc3c(=O)n2-c2cccc(OC)c2)o1	inactive	
CC(=O)C(C)Oc1ccc2c3c(c(=O)oc2c1)CCCCC3 (stereo unspecified)	active: 4.6e-08 M	
COc1ccc(C)cc1-n1nnnc1SCC(=O)c1cc(C)n(Cc2ccco2)c1C	inactive	

Compound	max dye-equivalent concentration	outcome
COCCn1c(SCC(=O)NCc2ccco2)nc2cccnc21	inconclusive: 2.6e-09 M	
CCOC(=O)C1CCN(c2nc3ccccc3nc2C(C#N)C(=O)OC(C)COC)CC1 (stereo unspecified)	active: 2.3e-08 M	
Cc1ccc(NS(=O)(=O)c2cc(C(=O)N3CCN(C)CC3)ccc2C)cc1	inconclusive: 1.7e-09 M	
O=c1cnc2cncnc2n1Cc1ccc(F)cc1	inactive	
COc1ccc(-c2nnc3sc(-c4ccco4)nn23)cc1OC	inconclusive: 1.5e-09 M	
COc1ccc(OC)c(C2C(C#N)=C(N)Oc3c2c(C)nn3-c2cccc(Cl)c2)c1 (stereo unspecified)	inconclusive: 1.7e-09 M	
CCCCn1c(NC(=O)c2ccccc2)c(C#N)c2nc3ccccc3nc21	active: 6.1e-08 M	
O=C(CSc1nc(-c2ccco2)cc(C(F)(F)F)n1)NCCc1ccccc1	inconclusive: 5.9e-09 M	
Cc1ccc(/C(O)=C2\C(=O)C(=O)N(CCCN(C)C)C2c2ccccn2)cc1 (stereo unspecified)	inactive	
O=C(O)c1cc(-c2ccncc2)nc2ccccc12	inactive	
Cc1ccc(CNC2=NCCCCC2)n1C	inconclusive: 9.6e-09 M	
O=C(CSc1nc(-c2ccccc2)cc(=O)[nH]1)N1CCOCC1	inactive	
Cc1cc(-c2cccs2)c2c(n1)sc1c(=O)[nH]c(=O)[nH]c12	active: 4.8e-08 M	
O=C(c1ccco1)[C@@H]1[C@@H]2C(=O)N(c3ccc(F)cc3)C(=O)[C@@H]2C2c3ccccc3C=CN21 (stereo partly specified)	inactive	
CCc1c(C)sc(NC(=O)c2cc(-c3cc(OC)ccc3OC)on2)c1C#N	active: 8.1e-08 M	
CN(C)S(=O)(=O)CC12CCC(CC1=O)C2(C)C (stereo unspecified)	inactive	
COc1ccc(C2C(C(=O)c3sc(C)nc3C)=C(O)C(=O)N2CCN2CCOCC2)cc1 (stereo unspecified)	inconclusive: 2.2e-09 M	
Cc1ccccc1N1C(=O)C2ON(c3ccccc3)C(c3cccnc3)C2C1=O (stereo unspecified)	inconclusive: 2e-09 M	
c1ccc(-n2nc3c(ccc4cnnc43)[nH]2)cc1	inconclusive: 4.2e-09 M	
Cc1ccccc1-c1cncnc1N(C)Cc1ccco1	inactive	
COc1ccccc1N1CCN(C(=O)c2ccc3nc(-c4ccco4)c(-c4ccco4)nc3c2)CC1	inconclusive: 5.7e-09 M	
